Measured values taken from publication PMC12210252.
A negative result means that nothing was seen under these conditions. At least one verdict rests on a figure or table, not on a statement of the authors. For part of these data: The exact form of at least one protein or probe is not confirmed.

Chains of the proteins cited; added tags and fusions are not shown. Chains listed by the source or under a name are the forms on record and can include a tag or linker. Residues count along the entry.
UniProt P02769, 25-607: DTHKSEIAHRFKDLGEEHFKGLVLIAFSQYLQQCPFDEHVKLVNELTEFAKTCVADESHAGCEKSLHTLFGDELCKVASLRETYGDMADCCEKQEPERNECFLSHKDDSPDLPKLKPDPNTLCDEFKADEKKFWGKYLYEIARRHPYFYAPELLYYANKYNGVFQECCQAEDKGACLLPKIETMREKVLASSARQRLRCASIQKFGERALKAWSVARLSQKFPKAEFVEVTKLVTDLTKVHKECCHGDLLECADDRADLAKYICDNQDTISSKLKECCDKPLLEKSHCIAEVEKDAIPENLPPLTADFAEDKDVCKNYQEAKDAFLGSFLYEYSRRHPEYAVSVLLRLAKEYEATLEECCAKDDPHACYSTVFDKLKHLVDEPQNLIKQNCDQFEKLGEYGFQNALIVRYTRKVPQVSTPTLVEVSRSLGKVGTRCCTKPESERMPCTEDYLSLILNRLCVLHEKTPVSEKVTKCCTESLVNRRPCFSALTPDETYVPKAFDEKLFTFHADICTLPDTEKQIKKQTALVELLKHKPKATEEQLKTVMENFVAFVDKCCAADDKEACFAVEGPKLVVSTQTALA
thyroid-stimulating hormone (hTSH) (human), one chain, as listed by the source, chain 2 of 2: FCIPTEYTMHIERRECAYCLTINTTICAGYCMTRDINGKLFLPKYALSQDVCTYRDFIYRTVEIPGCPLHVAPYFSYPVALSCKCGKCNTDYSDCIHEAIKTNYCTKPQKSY
thyroid-stimulating hormone (hTSH) (human), one chain, as listed by the source, chain 1 of 2: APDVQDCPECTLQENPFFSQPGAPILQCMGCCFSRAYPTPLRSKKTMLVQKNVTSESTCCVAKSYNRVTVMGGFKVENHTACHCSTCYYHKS

Key:
Assay in all cases: SnS2-FET aptasensor
Settings in all cases: 10 nM protein, response to 1 pM T4 at least several fold higher; 5'-thiol, immobilized on MPTMS surface through a disulfide bond; 1x PBS, pH 7.4; aptamer immobilized on PEG:MPTMS/SnS2-FET (AptT4:PEG:PTMS 1:2:3); temperature not stated; commercial protein; single-stranded DNA
[1] = tested on: thyroid-stimulating hormone (hTSH) (human)
[2] = biological target: bovine serum albumin (BSA) (bovine) (UniProt P02769)
hemoglobin (Hb) = tested on: hemoglobin (Hb)

Measured: binding result

CGCCGTTGGTGTTCGGTCAGGCTTCCGTGGCAACGGGGCAAAATGGTAATCGCGGGGAACC [AptT4 (SH-5'-AptT4), 61-mer T4 aptamer]
no binding: all assays above
